# From the supplement of paper PMC8728848
# This is one part of the list.
# B1: a L Fucosidase (Thermotoga maritima) (protein)
# chain: MASMKPRYKPDWESLREHTVPKWFDKAKFGIFIHWGIYSVPGWATPTGELGKVPMDAWFFQNPYAEWYENSLRIKESPTWEYHVKTYGENFEYEKFADLFTAEKWDPQEWADLFKKAGAKYVIPTTKHHDGFCLWGTKYTDFNSVKRGPKRDLVGDLAKAVREAGLRFGVYYSGGLDWRFTTEPIRYPEDLSYIRPNTYEYADYAYKQVMELVDLYLPDVLWNNMGWPEKGKEDLKYLFAYYYNKHPEGSVNDRWGVPHWDFKTAEYHVNYPGDLPGYKWEFTRGIGLSFGYNRNEGPEHMLSVEQLVYTLVDVVSKGGNLLLNVGPKGDGTIPDLQKERLLGLGEWLRKYGDAIYGTSVWERCCAKTEDGTEIRFTRKCNRIFVIFLGIPTGEKIVIEDLNLSAGTVRHFLTGERLSFKNVGKNLEITVPKKLLETDSITLVLEAVEE
# Experiments:
# Assay in all cases: glycan array binding signal (z-score within array); higher = stronger binding
# Conditions in all cases: glycan notation: IUPAC condensed, linker removed; mutation: D224N
# Gal(a1-6)Glc = target: Gal(a1-6)Glc
# Procedure, shortened: (§1)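 Columns mapping to the same glycan were averaged after glycan names were converted to IUPAC-condensed notation. The data come from 3228 arrays in the Consortium for Functional Glycomics database, limited to those with an available protein sequence. Binding is reported as a within-array Z-score averaged across arrays of one protein sequence and across linkers.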
# Gal(b1-2)Gal = target: Gal(b1-2)Gal
# Procedure, shortened: as §1
# Gal(b1-3)Gal = target: Gal(b1-3)Gal
# Procedure, shortened: as §1
# Gal(b1-3)Gal(b1-4)GlcNAc = target: Gal(b1-3)Gal(b1-4)GlcNAc
# Procedure, shortened: as §1
# Gal(b1-3)GalNAc = target: Gal(b1-3)GalNAc
# Procedure, shortened: as §1
# [1] = target: Gal(b1-3)GalNAc(a1-3)[Fuc(a1-2)]Gal(b1-4)Glc
# Procedure, shortened: as §1
# [2] = target: Gal(b1-3)GalNAc(a1-3)[Fuc(a1-2)]Gal(b1-4)GlcNAc
# Procedure, shortened: as §1
# Gal(b1-3)GalNAc(b1-3)Gal = target: Gal(b1-3)GalNAc(b1-3)Gal
# Procedure, shortened: as §1
# [3] = target: Gal(b1-3)GalNAc(b1-3)Gal(a1-4)Gal(b1-4)Glc
# Procedure, shortened: as §1
# [4] = target: Gal(b1-3)GalNAc(b1-4)Gal(b1-4)Glc
# Procedure, shortened: as §1
# [5] = target: Gal(b1-3)GalNAc(b1-4)[Neu5Ac(a2-3)]Gal(b1-4)Glc
# Procedure, shortened: as §1
# Gal(b1-3)GlcNAc = target: Gal(b1-3)GlcNAc
# Procedure, shortened: as §1
# [6] = target: Gal(b1-3)GlcNAc(a1-3)Gal(b1-4)GlcNAc
# Procedure, shortened: as §1
# [7] = target: Gal(b1-3)GlcNAc(a1-6)Gal(b1-4)GlcNAc
# Procedure, shortened: as §1
# Gal(b1-3)GlcNAc(b1-2)Man = target: Gal(b1-3)GlcNAc(b1-2)Man
# Procedure, shortened: as §1
# [8] = target: Gal(b1-3)GlcNAc(b1-2)Man(a1-3)[Gal(b1-3)GlcNAc(b1-2)Man(a1-6)]Man(b1-4)GlcNAc(b1-4)GlcNAc
# Procedure, shortened: as §1
# [9] = target: Gal(b1-3)GlcNAc(b1-2)Man(a1-3)[Gal(b1-3)GlcNAc(b1-2)Man(a1-6)]Man(b1-4)GlcNAc(b1-4)[Fuc(a1-6)]GlcNAc
# Procedure, shortened: as §1
# [10] = target: Gal(b1-3)GlcNAc(b1-2)Man(a1-3)[GlcNAc(b1-4)][Gal(b1-3)GlcNAc(b1-2)Man(a1-6)]Man(b1-4)GlcNAc(b1-4)GlcNAc
# Procedure, shortened: as §1
# [11] = target: Gal(b1-3)GlcNAc(b1-2)[Gal(b1-3)GlcNAc(b1-6)]Man(a1-6)[Gal(b1-3)GlcNAc(b1-2)Man(a1-3)]Man(b1-4)GlcNAc(b1-4)GlcNAc
# Procedure, shortened: as §1
# [12] = target: Gal(b1-3)GlcNAc(b1-3)Gal(b1-3)GlcNAc
# Procedure, shortened: as §1
# [13] = target: Gal(b1-3)GlcNAc(b1-3)Gal(b1-4)Glc
# Procedure, shortened: as §1
# [14] = target: Gal(b1-3)GlcNAc(b1-3)Gal(b1-4)GlcNAc
# Procedure, shortened: as §1
# [15] = target: Gal(b1-3)GlcNAc(b1-3)Gal(b1-4)GlcNAc(b1-2)Man(a1-3)[Gal(b1-3)GlcNAc(b1-3)Gal(b1-4)GlcNAc(b1-2)Man(a1-6)]Man(b1-4)GlcNAc(b1-4)GlcNAc
# Procedure, shortened: as §1
# [16] = target: Gal(b1-3)GlcNAc(b1-3)Gal(b1-4)GlcNAc(b1-2)[Gal(b1-3)GlcNAc(b1-3)Gal(b1-4)GlcNAc(b1-6)]Man(a1-6)[Gal(b1-3)GlcNAc(b1-3)Gal(b1-4)GlcNAc(b1-2)Man(a1-3)]Man(b1-4)GlcNAc(b1-4)[Fuc(a1-6)]GlcNAc
# Procedure, shortened: as §1
# [17] = target: Gal(b1-3)GlcNAc(b1-3)Gal(b1-4)GlcNAc(b1-3)Gal(b1-4)GlcNAc(b1-2)[Gal(b1-3)GlcNAc(b1-3)Gal(b1-4)GlcNAc(b1-3)Gal(b1-4)GlcNAc(b1-6)]Man(a1-6)[Gal(b1-3)GlcNAc(b1-3)Gal(b1-4)GlcNAc(b1-3)Gal(b1-4)GlcNAc(b1-2)Man(a1-3)]Man(b1-4)GlcNAc(b1-4)[Fuc(a1-6)]GlcNAc
# Procedure, shortened: as §1
# [18] = target: Gal(b1-3)GlcNAc(b1-3)Gal(b1-4)GlcNAc(b1-6)[Gal(b1-3)GlcNAc(b1-3)]Gal(b1-4)Glc
# Procedure, shortened: as §1
# [19] = target: Gal(b1-3)GlcNAc(b1-3)Gal(b1-4)[Fuc(a1-3)]GlcNAc
# Procedure, shortened: as §1
# [20] = target: Gal(b1-3)GlcNAc(b1-3)Gal(b1-4)[Fuc(a1-3)]GlcNAc(b1-6)[Gal(b1-3)GlcNAc(b1-3)]Gal(b1-4)Glc
# Procedure, shortened: as §1
# [21] = target: Gal(b1-3)GlcNAc(b1-3)GalNAc
# Procedure, shortened: as §1
# [22] = target: Gal(b1-3)GlcNAc(b1-6)Gal(b1-4)GlcNAc
# Procedure, shortened: as §1
# [23] = target: Gal(b1-3)GlcNAc(b1-6)GalNAc
# Procedure, shortened: as §1
# [24] = target: Gal(b1-3)GlcNAc(b1-6)[Gal(b1-3)]GalNAc
# Procedure, shortened: as §1
# Gal(b1-3)GlcNAc6S = target: Gal(b1-3)GlcNAc6S
# Procedure, shortened: as §1
# [25] = target: Gal(b1-3)[Fuc(a1-4)]GlcNAc
# Procedure, shortened: as §1
# [26] = target: Gal(b1-3)[Fuc(a1-4)]GlcNAc(b1-2)Man
# Procedure, shortened: as §1
# [27] = target: Gal(b1-3)[Fuc(a1-4)]GlcNAc(b1-2)Man(a1-3)[Gal(b1-3)[Fuc(a1-4)]GlcNAc(b1-2)Man(a1-6)]Man(b1-4)GlcNAc(b1-4)[Fuc(a1-6)]GlcNAc
# Procedure, shortened: as §1
# [28] = target: Gal(b1-3)[Fuc(a1-4)]GlcNAc(b1-3)Gal(b1-3)[Fuc(a1-4)]GlcNAc
# Procedure, shortened: as §1
binder,measurement,setting,value
B1,glycan array binding signal (z-score),Gal(a1-6)Glc,-0.979
same,glycan array binding signal (z-score),Gal(b1-2)Gal,-0.659
same,glycan array binding signal (z-score),Gal(b1-3)Gal,1.02
same,glycan array binding signal (z-score),Gal(b1-3)Gal(b1-4)GlcNAc,-0.35
same,glycan array binding signal (z-score),Gal(b1-3)GalNAc,0.216
same,glycan array binding signal (z-score),[1],-0.312
same,glycan array binding signal (z-score),[2],-0.456
same,glycan array binding signal (z-score),Gal(b1-3)GalNAc(b1-3)Gal,0.407
same,glycan array binding signal (z-score),[3],1.17
same,glycan array binding signal (z-score),[4],1.1
same,glycan array binding signal (z-score),[5],-0.462
same,glycan array binding signal (z-score),Gal(b1-3)GlcNAc,-0.496
same,glycan array binding signal (z-score),[6],-0.466
same,glycan array binding signal (z-score),[7],0.161
same,glycan array binding signal (z-score),Gal(b1-3)GlcNAc(b1-2)Man,0.366
same,glycan array binding signal (z-score),[8],-0.261
same,glycan array binding signal (z-score),[9],-0.448
same,glycan array binding signal (z-score),[10],0.08
same,glycan array binding signal (z-score),[11],0.638
same,glycan array binding signal (z-score),[12],-0.615
same,glycan array binding signal (z-score),[13],-0.283
same,glycan array binding signal (z-score),[14],-0.873
same,glycan array binding signal (z-score),[15],-0.13
same,glycan array binding signal (z-score),[16],0.356
same,glycan array binding signal (z-score),[17],0.162
same,glycan array binding signal (z-score),[18],-0.509
same,glycan array binding signal (z-score),[19],-0.636
same,glycan array binding signal (z-score),[20],-0.158
same,glycan array binding signal (z-score),[21],-0.822
same,glycan array binding signal (z-score),[22],-0.61
same,glycan array binding signal (z-score),[23],-0.257
same,glycan array binding signal (z-score),[24],-0.501
same,glycan array binding signal (z-score),Gal(b1-3)GlcNAc6S,-0.754
same,glycan array binding signal (z-score),[25],0.151
same,glycan array binding signal (z-score),[26],-1.03
same,glycan array binding signal (z-score),[27],-0.017
same,glycan array binding signal (z-score),[28],-1.02

# Another view of some results above.
binder	measurement	setting	value
B1	glycan array binding signal (z-score)	[27]	-0.017
same	glycan array binding signal (z-score)	[28]	-1.02
